Test results: patent publication US20050148545A1, “Glucosamine organic acid adducts” (priority 2001, published 2005)

Assay: Taste difference from control test, sensory panel
Design: key to Numerical Results (Average), difference from control: 0=no difference; 1=trace; 2=slight; 3=moderate; 4=strong; 5=very strong
Details: 0.44% weight/weight in water, panel of 7 individuals; for Numerical Results (Average), difference from control: 5 point scale for difference from glucosamine hydrochloride control; for Taste Results: compared with glucosamine hydrochloride control

Row | SMILES | Numerical Results (Average), difference from control (citrate) | Taste Results (citrate) | Numerical Results (Average), difference from control | Taste Results
1 | N[C@H]1C(O)O[C@H](CO)[C@@H](O)[C@@H]1O.O=C(O)CC(O)(CC(=O)O)C(=O)O [1G:1C, glucosamine citrate] | 4 | Strong sour, slight astringent |  | 
2 | N[C@H]1C(O)O[C@H](CO)[C@@H](O)[C@@H]1O.O=C(O)CC(O)(CC(=O)O)C(=O)O [1G:2C, glucosamine citrate] | 5 | Very strong sour, strong astringent |  | 
3 | N[C@H]1C(O)O[C@H](CO)[C@@H](O)[C@@H]1O.O=C(O)CC(O)(CC(=O)O)C(=O)O [1G:3C, glucosamine citrate] | 5 | Very strong ++sour, very strong |  | 
4 | Cl.N[C@H]1C(O)O[C@H](CO)[C@@H](O)[C@@H]1O (some centres unmarked) [Blind Control, glucosamine hydrochloride, reference compound] |  |  | 1 | Trace sweet, bitter
